Experimental data from publication PMC12824264.
No constants are given. Whether binding was seen depends on the method and setting. Some binding calls cover weakened binding; strength is not graded here. For part of these data: Sequences can lack the tags named with a protein.

T1: sENG-Fc (UniProt P17813)
T1 sequence: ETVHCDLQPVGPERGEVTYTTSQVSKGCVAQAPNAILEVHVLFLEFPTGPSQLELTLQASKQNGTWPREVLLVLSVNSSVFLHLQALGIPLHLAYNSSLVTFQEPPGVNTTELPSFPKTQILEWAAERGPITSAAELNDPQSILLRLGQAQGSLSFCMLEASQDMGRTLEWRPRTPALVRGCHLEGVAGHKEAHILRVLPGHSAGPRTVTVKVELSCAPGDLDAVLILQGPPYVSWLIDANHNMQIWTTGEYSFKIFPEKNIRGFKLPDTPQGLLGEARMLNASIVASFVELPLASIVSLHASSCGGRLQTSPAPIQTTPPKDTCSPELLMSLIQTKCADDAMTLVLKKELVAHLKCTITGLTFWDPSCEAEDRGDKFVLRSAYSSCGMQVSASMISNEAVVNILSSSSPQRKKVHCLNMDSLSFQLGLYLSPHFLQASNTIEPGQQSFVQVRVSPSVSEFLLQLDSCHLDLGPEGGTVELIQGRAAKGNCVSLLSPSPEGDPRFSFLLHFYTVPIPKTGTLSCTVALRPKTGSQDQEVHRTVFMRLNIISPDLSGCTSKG

T2: BMP10 growth factor domain (GFD) dimer (human) (UniProt O95393)
T2 sequence: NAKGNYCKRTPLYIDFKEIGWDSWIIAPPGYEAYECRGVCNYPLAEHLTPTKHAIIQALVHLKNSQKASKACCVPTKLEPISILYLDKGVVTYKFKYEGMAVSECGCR

B1: BMP9 growth factor domain (GFD) dimer (ligand, UniProt Q9UK05 320-429)
chain: SAGAGSHCQKTSLRVNFEDIGWDSWIIAPKEYEAYECKGGCFFPLADDVTPTKHAIVQTLVHLKFPTKVGKACCVPTKLSPISVLYKDDMGVPTLKYHYEGMSVAECGCR
B2: BMP10 growth factor domain (GFD) dimer (ligand, UniProt O95393 317-424)
chain: T2 sequence
B3: activin receptor type IIB (ActRIIB) extracellular domain (domain or fragment, UniProt Q13705 24-115)
chain: AETRECIYYNANWELERTNQSGLERCEGEQDKRLHCYASWRNSSGTIELVKKGCWLDDFNCYDRQECVATEENPQVYFCCCEGNFCNERFTH

Experiments:
[1] = target: T1, sENG-Fc; test: SPR; Biacore T200; sENG-Fc amine-coupled on a CM5 chip; BMP9 or BMP10 with and without ALK1 ECD; 10 mM HEPES pH 7.4, 150 mM NaCl, 3.4 mM EDTA, 0.5 mg/ml BSA, 0.005% P20, 25 C; both purified
[2] = target: T2, BMP10 growth factor domain (GFD) dimer (human); test: SEC; untagged monomeric BMPRII ECD or ActRIIB ECD with BMP9 or BMP10 GFD; physiological buffer conditions such as PBS; both purified

| Binder | binding [1] | binding [2] |
| --- | --- | --- |
| B1 | binds | – |
| B2 | binds | – |
| B3 | – | no binding |
